{
  "sequences": {"note": "Chains of the proteins cited; added tags and fusions are not shown.", "UniProt P47989, whole entry": "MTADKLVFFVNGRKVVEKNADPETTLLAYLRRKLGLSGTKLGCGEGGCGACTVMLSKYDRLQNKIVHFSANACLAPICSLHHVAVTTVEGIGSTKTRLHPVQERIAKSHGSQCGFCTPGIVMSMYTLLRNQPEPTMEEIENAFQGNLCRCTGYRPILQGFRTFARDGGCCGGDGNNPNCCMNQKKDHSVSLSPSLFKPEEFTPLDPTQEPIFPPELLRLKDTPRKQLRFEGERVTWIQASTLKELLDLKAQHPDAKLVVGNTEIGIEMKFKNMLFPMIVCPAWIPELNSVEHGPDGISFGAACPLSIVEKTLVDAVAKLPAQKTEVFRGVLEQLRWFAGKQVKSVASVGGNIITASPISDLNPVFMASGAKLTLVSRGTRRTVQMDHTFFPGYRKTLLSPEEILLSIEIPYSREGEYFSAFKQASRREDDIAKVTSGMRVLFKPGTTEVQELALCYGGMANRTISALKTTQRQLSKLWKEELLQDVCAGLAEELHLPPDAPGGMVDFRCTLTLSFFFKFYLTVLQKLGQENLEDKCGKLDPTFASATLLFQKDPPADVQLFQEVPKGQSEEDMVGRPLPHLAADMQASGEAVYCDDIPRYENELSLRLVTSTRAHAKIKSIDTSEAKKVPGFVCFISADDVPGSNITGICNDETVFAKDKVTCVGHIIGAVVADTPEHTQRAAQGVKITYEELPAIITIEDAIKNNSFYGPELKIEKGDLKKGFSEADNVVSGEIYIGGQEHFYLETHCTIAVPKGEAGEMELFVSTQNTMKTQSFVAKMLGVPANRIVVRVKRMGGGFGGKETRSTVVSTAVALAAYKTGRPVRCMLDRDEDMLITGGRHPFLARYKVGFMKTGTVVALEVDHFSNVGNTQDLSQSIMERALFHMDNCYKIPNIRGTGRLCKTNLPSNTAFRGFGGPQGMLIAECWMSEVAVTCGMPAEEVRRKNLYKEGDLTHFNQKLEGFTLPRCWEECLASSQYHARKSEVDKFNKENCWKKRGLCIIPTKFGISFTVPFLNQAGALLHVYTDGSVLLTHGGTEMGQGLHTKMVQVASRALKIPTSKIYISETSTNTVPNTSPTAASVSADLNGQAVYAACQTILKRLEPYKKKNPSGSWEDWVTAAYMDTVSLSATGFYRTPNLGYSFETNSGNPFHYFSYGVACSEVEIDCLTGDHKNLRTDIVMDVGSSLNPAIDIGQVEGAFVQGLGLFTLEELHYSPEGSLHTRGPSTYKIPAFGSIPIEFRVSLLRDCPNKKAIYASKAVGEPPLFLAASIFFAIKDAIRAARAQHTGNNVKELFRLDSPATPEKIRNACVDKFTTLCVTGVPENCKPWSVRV"},
  "source": "patent US20040234480A1",
  "about": "“Use of oligomeric proanthrocyanidins” (priority 2001, published 2004)",
  "target": "Xanthin oxidase (Homo sapiens, UniProt P47989)",
  "assay": "Method D: Xanthin oxidase, superoxide anion by NBT reduction, optical density at 490 nm",
  "format": "biochemical",
  "text": "Method D Xanthin oxidase is an enzyme which is released as a result of oxidative stress and catabolizes the degradation of the purine bases adenine and guanine into […] and superoxide anions. The latter dismutate spontaneously or in the presence of superoxide dismutase into hydrogen peroxide and oxygen.\nThe amount of superoxide anion can be determined by NBT reduction via the optical density at 490 nm. It was investigated whether fewer superoxide anions are generated or more anions are destroyed in the presence of the test substances.\nThe results are summarized in Table 1; in each case the EC50 values are given in % (w/v).",
  "note": "At least one compound was matched to its structure with a doubt left.",
  "data": [
    {"smiles": "Cc1cc(C(C)(C)C)c(O)c(C(C)(C)C)c1", "note": "[BHT, butylhydroxytoluene]", "values": [
      {"measurement": "EC50, test method D", "result": "no"}
    ]}
  ]
}
